Most values lie at the floor of the assay. Slopes are relative: functional sequences can read slightly below zero.
tested on: Saccharomyces cerevisiae PS128 hsf1 delta, HSF1(1-493) fusion; assay: growth estimate (transactivation domain function in HSF1 fusion, heat-shock survival) (a.u. (slope of normalised read count over time)); higher = stronger growth at 37°C, i.e. more transactivation activity; details: library: random library

Substance	growth estimate
LAASPIQIRKLSVSVRTAAN	< -0.25
LAAYRGGLLSSDHSTRQSIF	< -0.25
LACTGPRQDTALTGVSITGR	< -0.25
LADEYFKTVTR	< -0.25
LADIWLYLARSSAEGGRQVV	< -0.25
LADKGGACSE	< -0.25
LADSTAP	< -0.25
LAERQYTTANAR	< -0.25
LAEVARKEEKPAGGSCRGIG	< -0.25
LAGAKKFRF	-0.243
LAGGKFVELSNGSVGERPIF	< -0.25
LAGRS	0.249
LAGVSEADRVAGSRMAILNY	< -0.25
LAGYGCESACQSEGTHPARC	< -0.25
LAI	< -0.25
LAICYIPSAYKRGLCVQSHF	< -0.25
LAISNVEWNHETVHQGCYDL	< -0.25
LAKRLCSSWSHLT	< -0.25
LALGSFDPAVALMDGVALQN	< -0.25
LALSAKA	< -0.25
LALTETWGAPRTWQGCARSV	-0.245
LALVKYRED	< -0.25
LALVPVLVRTESVFRVVDIV	< -0.25
LAMCRKYRLSFR	< -0.25

Substance	growth estimate
LAMKLLPRLASSIENYGDVV	-0.234
LAMVQPTWNLLRLS	< -0.25
LANLSERVGRTIKDL	< -0.25
LANR	< -0.25
LANYRDQTGL	< -0.25
LAP	< -0.25
LAPVDSCRGTSGDGSNGVPV	< -0.25
LAQ	< -0.25
LAQIGQ	< -0.25
LAQNHFLFTVGI	< -0.25
LAQPCIWVLTIGPPETA	< -0.25
LAQSRATRLFI	< -0.25
LARGRWPRVGHTLTHDRLIF	< -0.25
LARYKTQTKSRQDISASSKT	< -0.25
LAS	< -0.25
LASGAGNGFCELKILAPNTR	< -0.25
LASLVRTEMLWRFLQ	< -0.25
LASNLVHWSK	< -0.25
LASRADF	< -0.25
LASRAGDPEVKKVPSPNISA	< -0.25
LASSWSRYIRMLSYQEPSCA	< -0.25
LASVSPRAWYSLSSLVYQTE	-0.0864
LATACGRPG	< -0.25
LAVEGIASFEKCMAIEAVLP	< -0.25

4 entries from above, reformatted:
Substance,growth estimate
LANLSERVGRTIKDL,< -0.25
LANYRDQTGL,< -0.25
LASGAGNGFCELKILAPNTR,< -0.25
LATACGRPG,< -0.25

(listing goes on)

Substance	growth estimate
LAVGTLLKKVRMPSPQTGYE	< -0.25
LAVLVNIRAGYVIGQG	< -0.25
LAWGLLPLL	< -0.25
LAWIVPGFIRSAFFLGLLLP	< -0.25
LAWVAAAFGCSWWQIATRNW	< -0.25
LAYESDSRKLWNKVEFSGAR	< -0.25
LAYLGNQWWVAVTRIAYRMD	< -0.25
LAYQLRPVI	< -0.25
LCAESGESNHLSRCRERKKS	< -0.25
LCCCIAVPAAHRHEMPEN	< -0.25
LCERRSELCLLVLGSGGAIG	< -0.25
LCETGALYMRVHTAWWIDIG	< -0.25
LCFALSKRRTQFLAPEFNSL	< -0.25
LCGLKPHALLSPIQHVPAHV	< -0.25
LCGSGYGDSARVRATRCRCA	< -0.25
LCHRRLGNLGQPCK	< -0.25
LCICKPVREVHESLCHGNSY	< -0.25
LCLFCTHAAGLLR	< -0.25
LCLGGITASQSDVTYQNHGP	< -0.25
LCLIGFVLDCL	< -0.25
LCLIGKAGLRTGMPRD	< -0.25
LCLNPRHNSRIFYPRA	< -0.25
LCNTYQQFSECST	< -0.25

— the supplement of paper PMC5949888
